Laboratory results: the M2OR odorant receptor database
This is a selection; strong and weak results do not stand in their true shares. Calls are pooled over several reports, among them a noisy single-well screen.

Columns and labels:
Details in all cases: stereoisomer not certain
[1] = biological target: T1, OR2AG1 (Homo sapiens) (UniProt Q9H205)
T1 sequence (whole entry): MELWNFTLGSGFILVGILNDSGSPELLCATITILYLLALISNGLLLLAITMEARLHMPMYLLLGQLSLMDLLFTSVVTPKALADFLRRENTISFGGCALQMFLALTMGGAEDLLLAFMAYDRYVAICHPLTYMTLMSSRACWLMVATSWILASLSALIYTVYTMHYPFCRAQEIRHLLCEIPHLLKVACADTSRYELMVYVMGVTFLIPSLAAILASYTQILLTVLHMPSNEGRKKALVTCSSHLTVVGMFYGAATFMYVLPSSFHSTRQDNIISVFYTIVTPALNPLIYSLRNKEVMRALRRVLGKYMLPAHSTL
Outline: (§1)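 Whether a receptor–molecule pair is responsive (active) rests on the original authors' judgment that its measured signal was statistically different from baseline. Pairs without that judgment are non-responsive (inactive). Sources used varied assay methods, commonly transient luciferase assays in mammalian cell lines.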

[2] = biological target: T2, OR2AG2 (Homo sapiens) (UniProt A6NM03)
T2 sequence (whole entry): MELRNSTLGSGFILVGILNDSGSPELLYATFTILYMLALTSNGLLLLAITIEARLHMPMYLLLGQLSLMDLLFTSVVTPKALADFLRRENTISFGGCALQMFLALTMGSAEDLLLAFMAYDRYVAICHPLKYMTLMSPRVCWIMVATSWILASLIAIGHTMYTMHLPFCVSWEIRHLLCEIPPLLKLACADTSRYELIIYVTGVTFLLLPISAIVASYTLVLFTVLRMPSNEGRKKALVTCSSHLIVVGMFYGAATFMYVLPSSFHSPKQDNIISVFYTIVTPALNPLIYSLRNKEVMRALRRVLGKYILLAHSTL
Outline: as §1

[3] = biological target: T3, OR2AP1 (Homo sapiens) (UniProt Q8NGE2)
T3 sequence (whole entry): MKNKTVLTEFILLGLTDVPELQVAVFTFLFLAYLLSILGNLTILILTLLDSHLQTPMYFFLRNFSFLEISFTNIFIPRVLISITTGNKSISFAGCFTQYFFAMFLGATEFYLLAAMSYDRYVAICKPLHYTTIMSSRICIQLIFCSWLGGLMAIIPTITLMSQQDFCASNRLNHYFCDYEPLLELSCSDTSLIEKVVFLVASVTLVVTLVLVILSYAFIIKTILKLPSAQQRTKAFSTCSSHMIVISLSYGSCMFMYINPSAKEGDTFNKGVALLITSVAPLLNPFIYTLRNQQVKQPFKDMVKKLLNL
Outline: as §1

[4] = biological target: T4, OR2AT4 (Homo sapiens) (UniProt A6NND4)
T4 sequence (whole entry): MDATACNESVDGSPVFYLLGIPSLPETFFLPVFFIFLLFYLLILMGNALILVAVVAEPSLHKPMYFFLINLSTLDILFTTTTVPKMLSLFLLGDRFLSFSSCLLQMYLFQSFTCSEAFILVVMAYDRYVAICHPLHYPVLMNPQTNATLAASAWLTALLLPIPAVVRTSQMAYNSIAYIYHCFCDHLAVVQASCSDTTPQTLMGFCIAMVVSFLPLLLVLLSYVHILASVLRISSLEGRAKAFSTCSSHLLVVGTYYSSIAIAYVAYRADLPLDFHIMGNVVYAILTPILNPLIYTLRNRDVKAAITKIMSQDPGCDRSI
Outline: as §1

[5] = biological target: T5, OR2B11 (Homo sapiens) (UniProt Q5JQS5)
T5 sequence (whole entry): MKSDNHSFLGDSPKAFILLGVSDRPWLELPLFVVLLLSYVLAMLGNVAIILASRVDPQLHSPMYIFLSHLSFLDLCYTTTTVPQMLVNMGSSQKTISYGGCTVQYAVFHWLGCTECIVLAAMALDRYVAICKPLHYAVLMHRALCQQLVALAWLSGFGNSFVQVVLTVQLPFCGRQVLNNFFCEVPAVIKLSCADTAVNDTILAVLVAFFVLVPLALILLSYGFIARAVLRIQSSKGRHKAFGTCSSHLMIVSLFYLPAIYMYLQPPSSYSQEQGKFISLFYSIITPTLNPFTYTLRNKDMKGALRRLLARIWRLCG
Outline: as §1

[6] = biological target: T6, OR2B2 (Homo sapiens) (UniProt Q9GZK3)
T6 sequence (whole entry): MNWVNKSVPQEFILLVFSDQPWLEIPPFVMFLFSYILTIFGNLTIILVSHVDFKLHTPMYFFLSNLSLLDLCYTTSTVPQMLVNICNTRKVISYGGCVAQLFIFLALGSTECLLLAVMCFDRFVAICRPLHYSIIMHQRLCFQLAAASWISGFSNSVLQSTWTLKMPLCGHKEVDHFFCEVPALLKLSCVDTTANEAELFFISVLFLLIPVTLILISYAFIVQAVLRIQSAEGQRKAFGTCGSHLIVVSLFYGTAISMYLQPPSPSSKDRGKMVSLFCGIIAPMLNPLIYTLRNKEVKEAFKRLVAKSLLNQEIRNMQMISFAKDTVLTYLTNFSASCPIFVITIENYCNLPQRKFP
Outline: as §1

[7] = biological target: T7, OR2B3 (Homo sapiens) (UniProt O76000)
T7 sequence (whole entry): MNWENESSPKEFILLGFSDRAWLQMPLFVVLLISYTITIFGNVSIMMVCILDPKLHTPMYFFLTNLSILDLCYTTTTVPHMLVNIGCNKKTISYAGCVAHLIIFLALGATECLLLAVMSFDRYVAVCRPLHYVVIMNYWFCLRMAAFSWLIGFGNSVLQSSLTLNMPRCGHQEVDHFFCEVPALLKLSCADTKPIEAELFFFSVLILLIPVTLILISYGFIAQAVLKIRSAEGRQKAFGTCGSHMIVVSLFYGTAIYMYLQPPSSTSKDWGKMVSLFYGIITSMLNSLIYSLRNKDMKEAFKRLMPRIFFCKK
Outline: as §1
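Also: active if original authors judged signal statistically different from baseline.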

SMILES | odorant receptor agonist call [1] | odorant receptor agonist call [2] | odorant receptor agonist call [3] | odorant receptor agonist call [4] | odorant receptor agonist call [5] | odorant receptor agonist call [6] | odorant receptor agonist call [7]
CCCCCCCCCC=O | inactive | inactive | inactive | inactive | inactive | inactive | inactive
CC(=O)c1ccccc1 | inactive | inactive | inactive | inactive | inactive | inactive | inactive
C=CCc1ccc(OC(C)=O)c(OC)c1 | inactive | inactive | inactive | inactive | inactive | inactive | –
CC1CCC(C(C)C)C(O)C1 (centres undefined) | inactive | active | inactive | inactive | inactive | active | inactive
CCCCCCCC=O | inactive | inactive | inactive | inactive | inactive | inactive | inactive
O=C1CCCCC1 | inactive | inactive | inactive | inactive | inactive | inactive | inactive
CC12CCC(CC1)C(C)(C)O2 | inactive | inactive | inactive | inactive | inactive | inactive | inactive
COC(=O)c1ccccc1O | inactive | inactive | inactive | inactive | inactive | inactive | inactive
CCCCCC(=O)O | inactive | inactive | inactive | inactive | inactive | inactive | inactive
CCCCCCCOC(C)=O | inactive | inactive | inactive | inactive | inactive | inactive | inactive
CCCCCCC=O | inactive | – | – | – | – | – | –
CCCC(=O)O | inactive | inactive | inactive | inactive | inactive | inactive | inactive
COc1cc(C=O)ccc1O | inactive | inactive | inactive | inactive | inactive | inactive | inactive

Part of the list above, showing only odorant receptor agonist call [2] and odorant receptor agonist call [5]:
SMILES | odorant receptor agonist call [2] | odorant receptor agonist call [5]
C=CCc1ccc(OC(C)=O)c(OC)c1 | inactive | inactive
CC1CCC(C(C)C)C(O)C1 (centres undefined) | active | inactive
